This is one part of the list. This data set is noisy: repeats of one test often differ as much as different tests do.
target: HuR (ELAVL1) - TNFalpha ARE RNA complex (UniProt Q15717); assay: AlphaScreen HuR-RNA complex signal Z-score relative to positive (Bi-TNF, DMSO) controls (Z-score (SD units of positive control)); higher = more complex signal; details: screen stage: primary screen; compound concentration: 25 nM

By UniProt entry, the sequences of proteins in these tests, tags left out.
UniProt Q15717, whole entry: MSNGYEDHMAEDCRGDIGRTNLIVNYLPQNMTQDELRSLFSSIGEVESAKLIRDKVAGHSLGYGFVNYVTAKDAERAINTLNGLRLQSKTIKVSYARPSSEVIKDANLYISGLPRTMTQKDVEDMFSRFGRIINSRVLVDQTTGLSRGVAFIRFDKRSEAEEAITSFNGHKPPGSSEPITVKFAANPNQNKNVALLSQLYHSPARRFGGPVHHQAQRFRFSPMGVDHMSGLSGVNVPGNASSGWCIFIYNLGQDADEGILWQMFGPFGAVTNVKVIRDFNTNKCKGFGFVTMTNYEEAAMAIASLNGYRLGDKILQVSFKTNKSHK

| Compound | AlphaScreen HuR-RNA complex signal Z-score |
| --- | --- |
| CC[C@@]1(O)C[C@H](O[C@H]2C[C@H](N(C)C)[C@H](O)[C@H](C)O2)c2c(cc3c(c2O)C(=O)c2c(O)ccc(O)c2C3=O)[C@H]1C(=O)OC | 1.13 |
| O=[N+]([O-])c1cc([As](=O)(O)O)ccc1O | 41.9 |
| CC(=O)C1CCC2C3CCC4C[C@H](O)CCC4(C)C3C[C@H](O)C12C (stereo partly drawn) [DIHYDROXY (3alpha,12alpha)PREGNAN-20-ONE] | 1.27 |
| CC(C)CCCC1(C)C=Cc2c(O)c3c(c(CCC(C)C)c2O1)OC12C(CC4CC1C(C)(C)OC2(CCC(C)C(=O)O)C4O)C3=O (stereo not drawn) | -0.698 |
| O=P1(NCCCl)OCCCN1CCCl (stereo not drawn) | 1.01 |
| C=C(C)[C@@H]1[C@H]2OC(=O)[C@@H]1[C@]1(O)C[C@H]3O[C@]34C(=O)O[C@H]2[C@]14C | 1.92 |
| Oc1ccc(Cl)cc1 | 5.31 |
| CC(C)c1c(CN(C)C(C)Cc2ccccc2)n(C)n(-c2ccccc2)c1=O (stereo not drawn) | 0.407 |
| COS(C)(=O)=O | 0.986 |
| CCCCN(CC)c1c([N+](=O)[O-])cc(C(F)(F)F)cc1[N+](=O)[O-] | 1.97 |
| CC(=O)OC1CCC23C(=O)OC45CCC(C6=CC(=O)OC6)C4(C)CCC2C5CCC3(O)C1 (stereo not drawn) | 1.53 |
| NC(=O)CN1CCCC1=O | 1.4 |
| C[C@@H](CO)NC(=O)[C@@H]1C=C2c3cccc4[nH]cc(c34)C[C@H]2N(C)C1 | -2.83 |
| CN1CCN(C(=O)OC2c3nccnc3C(=O)N2c2ccc(Cl)cn2)CC1 (stereo not drawn) | 0.77 |
| NCCc1c[nH]c2ccccc12 | 1.44 |
| C[C@]12CC[C@H](O)C[C@H]1CC[C@@H]1[C@@H]2C[C@@H](O)[C@]2(C)[C@@H](C3=CC(=O)OC3)CC[C@]12O | 2.01 |
| NC(=O)C[S+]([O-])C(c1ccccc1)c1ccccc1 (stereo not drawn) | 0.267 |
| ClC1=C(Cl)C2(Cl)C3C4C=CC(C4)C3C1(Cl)C2(Cl)Cl (stereo not drawn) | 2.68 |
| COC(=O)COc1cc(Cl)c(Cl)cc1Cl | 0.699 |
| CC(=O)OCC1=C(C(=O)O)N2C(=O)[C@@H](NC(=O)CCC[C@@H](N)C(=O)O)[C@H]2SC1 | 1.42 |
| COc1c2c(cc3c1OCO3)CC[N+](C)=C2 | 0.554 |
| Cc1cccc(C)c1NC1=NCCCS1 | 1.06 |
| CC(C)(C)C(=O)C(Oc1ccc(Cl)cc1)n1cncn1 (stereo not drawn) | -0.066 |
| CC[C@H]1CN2CCc3cc(OC)c(OC)cc3[C@@H]2C[C@@H]1C[C@H]1NCCc2cc(OC)c(OC)cc21 | -3.54 |
| CNC(C)C(O)c1ccccc1 (stereo not drawn) | 4.66 |
| COc1cc([C@@H]2c3cc4c(cc3[C@H](O)[C@H]3COC(=O)[C@H]23)OCO4)cc(OC)c1OC | -1.25 |
| Cc1ccc(O)cc1.Cc1cccc(O)c1.Cc1ccccc1O | -1.01 |

| Compound | AlphaScreen HuR-RNA complex signal Z-score |
| --- | --- |
| C[C@@H]1CC[C@H]2[C@@H](C)C(=O)O[C@@H]3O[C@@]4(C)CC[C@@H]1[C@]32OO4 | 1.77 |
| CC[C@H]1[C@@H]2C[C@H]3[C@@H]4N(C)c5ccccc5[C@]45C[C@@H]([C@@H]2[C@H]5O)N3[C@@H]1O | 0.549 |
| COc1ccc(C[C@H]2NC[C@H](O)[C@H]2OC(C)=O)cc1 | 1.27 |
| CC1(C)N([O-])[N+](=O)C1(C)Br (stereo not drawn) | 1.81 |
| COc1ccc2c(c1)[nH]c1c(C)nccc12 | 1.09 |
| Oc1c(Cl)c(Cl)c(Cl)c(Cl)c1Cl | 2.78 |
| O=C1c2ccccc2C(=O)c2ccccc21 | 2.85 |
| NCCc1c[nH]c2ccc(O)cc12 | 0.649 |
| CNC(C)[C@H](O)c1ccccc1 (stereo partly drawn) | 2.54 |
| CCC(COC(=O)c1cc(OC)c(OC)c(OC)c1)(c1ccccc1)N(C)C (stereo not drawn) | 1.07 |
| COC(=O)C(c1ccccc1)C1CCCCN1 (stereo not drawn) | 2.09 |
| C[C@H]1C(=O)O[C@@H]2CCN3CC=C(COC(=O)[C@](C)(O)[C@]1(C)O)[C@H]23 | -3.63 |
| CC(C)=CCCC1(C)C=Cc2c(O)c3c(c(CC=C(C)C)c2O1)OC12C(=CC4CC1C(C)(C)OC2(C/C=C(/C)C(=O)O)C4O)C3=O (stereo not drawn) | 1.62 |
| COC[C@]12CN(C=O)[C@@H]3[C@@H]4[C@H](OC)[C@H]1[C@@]3([C@@H](OC)C[C@H]2O)[C@@H]1C[C@@]2(O)[C@H](OC(=O)c3ccccc3)[C@@H]1[C@]4(OC(C)=O)[C@@H](O)[C@@H]2OC | 3.34 |
| O=C(O)COc1cc(Cl)c(Cl)cc1Cl | 2.4 |
| CO[C@]12C[C@@H](COC(=O)c3cncc(Br)c3)CN(C)[C@@H]1Cc1cn(C)c3cccc2c13 | 0.652 |
| COc1cc2c(cc1OC)[C@@H]1C(=O)c3ccc4oc(C(C)C)cc4c3O[C@@H]1CO2 | 2.18 |
| O=C(O)CCC1NCC2CC1CN1CCCCC21 (stereo not drawn) | 2 |
| C[N+]12CCC(CC1)C(OC(=O)C(O)(c1ccccc1)c1ccccc1)C2 (stereo not drawn) | -6.23 |
| O=C1CCC[C@@H]2[C@H]3C[C@@H](CN12)[C@@H]1CCCCN1C3.[O-][Cl+3]([O-])([O-])O | 1.17 |
| CC(CC(C(N)=O)(c1ccccc1)c1ccccc1)N(C)C (stereo not drawn) | 1.63 |
| COc1cc2c(cc1-c1cc3cc4ccoc4cc3oc1=O)OCO2 | 1.59 |
| CN(C)C(=S)SSC(=S)N(C)C | -3.15 |
| CC(C)C[C@H](CN)CC(=O)O | 1.48 |
| O=C1NC(=O)C(=O)C(=O)N1 | 1.88 |
| CC(C)(C)NCC(O)c1ccccc1Cl (stereo not drawn) | 1.32 |
